Source: article PMC7199185 (ACS applied materials & interfaces, 2019)
Values after ≈ are worked out from the molar mass of the structure shown.

Experiments:
[1] = test system: Staphylococcus aureus JE2 MRSA; test: Broth microdilution MIC; format: cell-based; details: pH 7, read-out: MIC Sa (S. aureus JE2 MRSA)
[2] = test system: Staphylococcus aureus LAC MRSA; test: Broth microdilution MIC; format: cell-based; details: pH 7, read-out: MIC Sa (S. aureus LAC MRSA)

`CN[C@H](CC(C)C)C(=O)N[C@H]1C(=O)N[C@@H](CC(N)=O)C(=O)N[C@H]2C(=O)N[C@H]3C(=O)N[C@H](C(=O)N[C@H](C(=O)O)c4cc(O)cc(O)c4-c4cc3ccc4O)[C@H](O)c3ccc(c(Cl)c3)Oc3cc2cc(c3O[C@@H]2O[C@H](CO)[C@@H](O)[C@H](O)[C@H]2O[C@H]2C[C@](C)(N)[C@H](O)[C@H](C)O2)Oc2ccc(cc2Cl)[C@H]1O` [Van, Vancomycin] gave an MIC [1] of 2 µg/mL (≈ 1.38 µM) and an MIC [2] of 2 µg/mL (≈ 1.38 µM).
